Data from PMC9239058.
These are yes or no findings as the source states them, for the method shown. Binding seen in cells or lysates may run through a third protein. Some entries that bind do so weakly or less than the wild type. For part of these data: Where a sequence is shown, tags or fusion partners need not be part of it.

The chains behind the UniProt entries cited, without tags or fusion partners.
UniProt Q16666: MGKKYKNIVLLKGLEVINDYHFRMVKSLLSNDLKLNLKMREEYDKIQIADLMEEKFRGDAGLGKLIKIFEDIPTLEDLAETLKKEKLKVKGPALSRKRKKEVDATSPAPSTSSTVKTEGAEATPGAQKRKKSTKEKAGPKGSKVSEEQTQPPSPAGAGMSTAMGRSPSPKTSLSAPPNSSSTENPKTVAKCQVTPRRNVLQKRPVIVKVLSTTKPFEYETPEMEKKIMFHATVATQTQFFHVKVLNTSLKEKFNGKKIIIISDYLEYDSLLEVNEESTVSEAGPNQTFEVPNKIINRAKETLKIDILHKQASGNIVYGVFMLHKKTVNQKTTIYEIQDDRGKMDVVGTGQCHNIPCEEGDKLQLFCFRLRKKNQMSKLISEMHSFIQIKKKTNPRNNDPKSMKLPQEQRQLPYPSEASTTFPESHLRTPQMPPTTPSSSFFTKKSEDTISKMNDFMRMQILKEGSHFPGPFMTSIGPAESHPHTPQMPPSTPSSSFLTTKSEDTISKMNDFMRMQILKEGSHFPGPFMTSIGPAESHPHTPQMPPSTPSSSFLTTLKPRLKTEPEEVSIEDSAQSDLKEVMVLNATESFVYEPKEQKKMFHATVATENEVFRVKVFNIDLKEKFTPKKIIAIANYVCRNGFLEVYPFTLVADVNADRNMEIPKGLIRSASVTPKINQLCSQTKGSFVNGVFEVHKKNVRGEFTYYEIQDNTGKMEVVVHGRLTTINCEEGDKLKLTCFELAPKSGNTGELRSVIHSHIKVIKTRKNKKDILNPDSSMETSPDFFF

T1: HA-tagged human ChREBPα (human) (UniProt Q9NP71)
T1 sequence: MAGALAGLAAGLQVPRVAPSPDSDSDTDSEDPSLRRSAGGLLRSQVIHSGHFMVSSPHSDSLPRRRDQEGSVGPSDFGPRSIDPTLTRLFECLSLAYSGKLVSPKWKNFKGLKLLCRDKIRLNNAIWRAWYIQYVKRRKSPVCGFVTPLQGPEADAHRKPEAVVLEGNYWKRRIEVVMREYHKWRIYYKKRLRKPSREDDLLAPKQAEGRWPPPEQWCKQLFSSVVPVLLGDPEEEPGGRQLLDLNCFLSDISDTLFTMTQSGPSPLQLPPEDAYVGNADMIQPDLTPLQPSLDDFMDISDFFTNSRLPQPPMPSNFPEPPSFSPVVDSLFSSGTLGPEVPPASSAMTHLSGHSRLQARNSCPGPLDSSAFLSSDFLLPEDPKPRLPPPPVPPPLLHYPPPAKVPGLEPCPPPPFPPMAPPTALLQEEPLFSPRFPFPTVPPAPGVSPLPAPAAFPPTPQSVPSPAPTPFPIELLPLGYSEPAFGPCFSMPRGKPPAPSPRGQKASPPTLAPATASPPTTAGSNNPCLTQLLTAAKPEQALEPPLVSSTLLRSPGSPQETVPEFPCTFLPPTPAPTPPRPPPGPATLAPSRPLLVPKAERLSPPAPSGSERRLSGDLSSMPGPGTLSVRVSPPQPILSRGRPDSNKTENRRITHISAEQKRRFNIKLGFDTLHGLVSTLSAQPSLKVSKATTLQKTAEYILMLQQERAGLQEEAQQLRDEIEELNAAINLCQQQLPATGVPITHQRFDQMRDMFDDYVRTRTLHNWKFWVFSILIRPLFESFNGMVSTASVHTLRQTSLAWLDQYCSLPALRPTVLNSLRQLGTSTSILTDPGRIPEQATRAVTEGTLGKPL

T2: carbohydrate-response element-binding protein (ChREBP) (human (endogenous in HFFs)) (UniProt Q9NP71)
T2 sequence: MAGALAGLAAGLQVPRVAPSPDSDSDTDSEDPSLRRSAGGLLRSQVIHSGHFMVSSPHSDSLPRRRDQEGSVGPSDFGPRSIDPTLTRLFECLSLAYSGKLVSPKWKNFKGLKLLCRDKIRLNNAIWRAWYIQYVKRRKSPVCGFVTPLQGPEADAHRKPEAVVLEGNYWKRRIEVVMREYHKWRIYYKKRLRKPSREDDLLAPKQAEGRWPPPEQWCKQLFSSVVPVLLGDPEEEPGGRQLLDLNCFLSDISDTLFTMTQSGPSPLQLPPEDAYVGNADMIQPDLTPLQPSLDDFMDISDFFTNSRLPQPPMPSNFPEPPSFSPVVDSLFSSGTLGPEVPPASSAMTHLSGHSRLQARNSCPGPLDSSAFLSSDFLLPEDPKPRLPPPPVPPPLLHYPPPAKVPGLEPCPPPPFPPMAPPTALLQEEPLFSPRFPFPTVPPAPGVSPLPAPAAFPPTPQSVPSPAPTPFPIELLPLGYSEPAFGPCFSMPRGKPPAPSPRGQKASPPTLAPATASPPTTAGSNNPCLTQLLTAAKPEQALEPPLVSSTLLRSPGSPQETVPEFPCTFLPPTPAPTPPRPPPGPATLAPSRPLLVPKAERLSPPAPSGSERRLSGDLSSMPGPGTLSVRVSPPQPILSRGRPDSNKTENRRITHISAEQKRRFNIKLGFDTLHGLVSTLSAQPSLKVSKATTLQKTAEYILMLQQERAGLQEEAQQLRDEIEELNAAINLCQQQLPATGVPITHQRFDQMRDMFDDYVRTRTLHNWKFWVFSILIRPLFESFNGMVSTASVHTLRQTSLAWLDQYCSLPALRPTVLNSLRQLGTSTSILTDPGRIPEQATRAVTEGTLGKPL


Experiments:
[1] = target: T1, HA-tagged human ChREBPα (human); assay: co-IP; […] (50 mM Tris pH 7.4, 150 mM NaCl, 1 mM EDTA, 1% Triton); […]
[2] = target: T2, carbohydrate-response element-binding protein (ChREBP) (human (endogenous in HFFs)); assay: proximity ligation; in situ PLA (DuoLink) with anti-ChREBP and anti-IFI16 antibodies on fixed, permeabilised HFFs infected with HCMV (MOI 1) for 24 h; mock-infected cells as negative control
[3] = target: gamma interferon (IFN-γ)-inducible protein 16 (IFI16) (human (endogenous in HFFs)) (UniProt Q16666); assay: co-IP; […] (50 mM Tris pH 7.4, 150 mM NaCl, 1 mM EDTA, 1% Triton); […]

| binding [1] | binding [2] | binding [3] | Molecule |
| --- | --- | --- | --- |
| binds | binds | – | gamma interferon (IFN-γ)-inducible protein 16 (IFI16) (from UniProt Q16666 1-785) |
| – | – | binds | HA-tagged human ChREBPα (protein, UniProt Q9NP71 1-852) MAGALAGLAAGLQVPRVAPSPDSDSDTDSEDPSLRRSAGGLLRSQVIHSGHFMVSSPHSDSLPRRRDQEGSVGPSDFGPRSIDPTLTRLFECLSLAYSGKLVSPKWKNFKGLKLLCRDKIRLNNAIWRAWYIQYVKRRKSPVCGFVTPLQGPEADAHRKPEAVVLEGNYWKRRIEVVMREYHKWRIYYKKRLRKPSREDDLLAPKQAEGRWPPPEQWCKQLFSSVVPVLLGDPEEEPGGRQLLDLNCFLSDISDTLFTMTQSGPSPLQLPPEDAYVGNADMIQPDLTPLQPSLDDFMDISDFFTNSRLPQPPMPSNFPEPPSFSPVVDSLFSSGTLGPEVPPASSAMTHLSGHSRLQARNSCPGPLDSSAFLSSDFLLPEDPKPRLPPPPVPPPLLHYPPPAKVPGLEPCPPPPFPPMAPPTALLQEEPLFSPRFPFPTVPPAPGVSPLPAPAAFPPTPQSVPSPAPTPFPIELLPLGYSEPAFGPCFSMPRGKPPAPSPRGQKASPPTLAPATASPPTTAGSNNPCLTQLLTAAKPEQALEPPLVSSTLLRSPGSPQETVPEFPCTFLPPTPAPTPPRPPPGPATLAPSRPLLVPKAERLSPPAPSGSERRLSGDLSSMPGPGTLSVRVSPPQPILSRGRPDSNKTENRRITHISAEQKRRFNIKLGFDTLHGLVSTLSAQPSLKVSKATTLQKTAEYILMLQQERAGLQEEAQQLRDEIEELNAAINLCQQQLPATGVPITHQRFDQMRDMFDDYVRTRTLHNWKFWVFSILIRPLFESFNGMVSTASVHTLRQTSLAWLDQYCSLPALRPTVLNSLRQLGTSTSILTDPGRIPEQATRAVTEGTLGKPL |
